# Data reported in PubChem BioAssay AID540275 (National Center for Advancing Translational Sciences (NCATS), 2011).
# Sequences of proteins named here, by UniProt entry; tags and fusion partners are left off.
# UniProt Q8NER1, whole entry, looked up: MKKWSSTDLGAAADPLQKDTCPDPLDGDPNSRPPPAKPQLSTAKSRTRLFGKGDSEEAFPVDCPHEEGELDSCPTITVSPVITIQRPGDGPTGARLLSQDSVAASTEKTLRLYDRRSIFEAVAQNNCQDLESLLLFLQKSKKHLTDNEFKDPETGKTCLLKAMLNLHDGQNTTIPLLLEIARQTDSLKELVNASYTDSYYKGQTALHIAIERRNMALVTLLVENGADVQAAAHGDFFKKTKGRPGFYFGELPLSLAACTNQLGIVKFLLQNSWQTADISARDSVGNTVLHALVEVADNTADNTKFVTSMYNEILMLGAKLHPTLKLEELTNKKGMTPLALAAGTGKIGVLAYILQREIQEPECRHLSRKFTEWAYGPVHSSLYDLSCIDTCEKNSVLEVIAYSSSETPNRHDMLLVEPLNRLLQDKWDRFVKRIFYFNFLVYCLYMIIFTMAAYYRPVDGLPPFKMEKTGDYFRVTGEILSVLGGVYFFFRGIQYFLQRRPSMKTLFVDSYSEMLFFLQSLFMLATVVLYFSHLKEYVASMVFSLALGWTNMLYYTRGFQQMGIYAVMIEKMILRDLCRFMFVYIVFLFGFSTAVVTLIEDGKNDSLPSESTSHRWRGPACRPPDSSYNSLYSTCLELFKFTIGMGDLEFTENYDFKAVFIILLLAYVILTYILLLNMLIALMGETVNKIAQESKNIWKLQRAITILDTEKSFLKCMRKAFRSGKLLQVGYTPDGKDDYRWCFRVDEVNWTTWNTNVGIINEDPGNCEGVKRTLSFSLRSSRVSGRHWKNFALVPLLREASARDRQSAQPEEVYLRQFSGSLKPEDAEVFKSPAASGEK
# About 620 (0.19%) of roughly 320,000 compounds were called active. Inconclusive results, whose numbers are uncertain, are shown with a selection of clear calls. No stated cut-off is given here; in the data, active means activation above about 80%; inconclusive means between about 30% and that limit; inactive means weaker than that.
# Target: Transient receptor potential cation channel subfamily V member 1 (Homo sapiens) (UniProt Q8NER1)
# Assay: HTS Assay for Compounds that Act as Agonists of the Vanilloid Receptor 1; further: 0% is about no effect
# Details: TRPV1-expressing cells, Fluo-8 calcium influx, agonist mode; at 8.33 µM, stronger effect = higher value
# Procedure, shortened: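 Cells expressing TRPV1 were dye-loaded with Fluo-8 and read kinetically: 10 s baseline, 3 min after compound (agonist portion), then 2 min after EC20 capsaicin (allosteric enhancer portion). Calcium-bound dye fluorescence at 480/520 nm.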
row,SMILES,activation
1,O=C(CNC(=S)N(Cc1ccccc1)Cc1ccccc1F)NCc1ccccc1,inconclusive: 39.1%
2,CCOc1cc(/C=C(\C#N)C(=O)NCC2CCCO2)ccc1OCC(N)=O (stereo unspecified),inactive: 0.229%
3,CCCn1c(N)c(N(CCOC)C(=O)c2cc3c(s2)CCC(CC)C3)c(=O)[nH]c1=O (stereo unspecified),inactive: 2.03%
4,COc1ccc(NC(=O)c2sc3cc(C(F)(F)F)cnc3c2-c2cccs2)cc1,inactive: -1.24%
5,Cc1oc(-c2cccc(Cl)c2)nc1CS(=O)(=O)CC(=O)NC1CCCC1,inconclusive: 31.5%
6,Cc1ccsc1/C=N/NC(=O)c1nnn(-c2nonc2N)c1-c1ccccc1,inactive: -2.1%
7,COc1ccccc1CCC(=O)N(C)C1CCCN(Cc2ccccc2F)C1 (stereo unspecified),inconclusive: 35.2%
8,Cc1ccsc1C(C(=O)NCc1ccccc1)N(C(=O)c1csnn1)c1ccccc1 (stereo unspecified),inactive: 14.6%
9,c1ccc(CCNc2c3c(nc4ncnn24)CCC3)cc1,inconclusive: 31%
10,Cc1cccc(NC(=O)CN(C)C(C)C(=O)Nc2ccc(S(=O)(=O)N3CCCC3)cc2)c1C (stereo unspecified),inactive: 26.3%
11,CS(=O)(=O)N1CCCC(C(=O)Nc2ccc(Br)cc2F)C1 (stereo unspecified),inactive: 5.35%
12,O=c1cc(N2CCCCC2)c(-c2ccccc2)nn1Cc1cccc(F)c1,inconclusive: 61.7%
13,OC1CCN(C(=S)Nc2ccc(Oc3ccccc3)cc2)CC1,inconclusive: 67.4%
14,CN1\C(=C/C=C/C=C/C=[N+](C)C)C(C)(C)c2ccccc21,inconclusive: 49.3%
15,Cc1cc(C)cc(C(=O)Nc2nc3ccccc3[nH]2)c1,inactive: 7.32%
16,COCCCNC(=S)N1CCCN(c2nc3cc(C)ccc3cc2C#N)CC1,inactive: 22.7%
17,O=c1c2cn[nH]c2nc(SCc2c(F)cccc2F)n1-c1ccc(Cl)cc1,inactive: -0.994%
18,COc1ccccc1NC(=O)NCCC1=CCCCC1,inconclusive: 43.6%
19,Cc1cc2c(SCC(=O)N3CCN(c4ccccc4)CC3)ncnc2s1,inconclusive: 48.4%
20,Cc1ccc(-c2nn(-c3ccccc3Cl)cc2C(=O)NCC2CCCO2)cc1 (stereo unspecified),inconclusive: 55%
21,O=S(=O)(Nc1ccccc1O)c1ccc(-c2ccccc2)cc1,inconclusive: 31.1%
22,COc1ccc(CCNC(=S)NC2CCN(Cc3ccccc3)CC2)cc1OC,inconclusive: 39.1%
23,CSc1ncc(C(=O)Nc2ccc(C)cc2C)c(C)n1,inconclusive: 31.1%

row,SMILES,activation
1,CCN(CC)c1ccc(/C=C/C(=O)C2C(=O)C=C(C)OC2=O)cc1 (stereo unspecified),active: 93.5%
2,O=C(Nc1ccc2c(c1)CCC2)c1ccc(F)c(S(=O)(=O)N2CCOCC2)c1,inconclusive: 65%
3,O=C(COC(=O)c1ccc(F)cc1F)NCCC1=CCCCC1,inconclusive: 41.1%
4,Cc1cc(Cl)ccc1OCc1nc(-c2ccc(O)cc2)n[nH]1,inconclusive: 49.5%
5,CCOc1ccccc1-c1ccc(C(=O)NCc2ccccc2)o1,inconclusive: 72.3%
6,C=CCn1c(C2CC(=O)N(c3ccc(C)cc3)C2)nc2ccccc21 (stereo unspecified),inconclusive: 33.6%
7,FC(F)(F)c1cccc(Cc2noc(CN3CCCCC3c3ccccn3)n2)c1 (stereo unspecified),inactive: 5.47%
8,O=C(NC1CCCCC1)C(c1ccc2ncccc2c1)N(Cc1ccc(F)cc1)C(=O)c1cccs1 (stereo unspecified),inconclusive: 32.7%
9,COc1ccccc1-c1sc2cc3c(cc2c1C#Cc1ccccn1)OCO3,inconclusive: 42%
10,CC/C(=N\NC(=O)C1CCCC1)c1ccc(Br)cc1,inconclusive: 38.6%
11,COc1ccc(N=Cc2c(O)c3ccccc3oc2=O)cc1,inconclusive: 40.4%
12,COC(=O)c1c(-n2c(C)cc(C=O)c2C)sc2c1CCCC2,inconclusive: 46.8%
13,C=C(C)C1CCC(C)=C1COC(=O)Nc1ccccc1 (stereo unspecified),inconclusive: 43.6%
14,Cc1cc(SCC(=O)N/N=C/c2ccc(O)c(O)c2)c(C)cc1Br,inconclusive: 56.8%
15,COc1ccc(NC(C)c2ccccc2)cc1 (stereo unspecified),inconclusive: 43.5%
16,C=CCNCCOCCOc1ccc(Cl)cc1C(C)(C)C,inactive: -0.51%
17,Cn1nccc1NC(=O)Nc1cccc(Br)c1,inconclusive: 56.4%
18,O=C(NCc1ccc(OC(F)(F)F)cc1)C1CC(c2cccc(F)c2)=NO1 (stereo unspecified),inconclusive: 30.1%
19,O=C(OCC(=O)N1CCOCC1)c1cnc(Cl)c(Cl)c1,inactive: -0.346%
20,Cc1cc(=O)[nH]c(SCCOc2ccc(OC(C)C)cc2)n1,inconclusive: 36.4%
21,COc1ccc(-c2nc3ccccn3c2CN2CCN(c3ccccc3F)CC2)cc1,inconclusive: 40.6%
22,CCOc1ccc(CNc2nc3ccccc3n2CCN2CCOCC2)cc1,inactive: 4.6%
23,O=C(CN(C(=O)CSc1nc2ccccc2o1)c1ccccc1F)NC1CCCCC1,inconclusive: 30.2%

row,SMILES,activation
1,CCCCCn1c(CNC(C)=O)nc2ccccc21,inconclusive: 39.5%
2,COc1ccccc1C1CC(c2ccccc2)=NN1S(=O)(=O)c1ccccc1 (stereo unspecified),inactive: 15.9%
3,CCCCNC(=S)Nc1ccc(Oc2ccccc2)cc1,inconclusive: 44%
4,COc1cccc(C(=O)NCCC2=CCCCC2)c1,inconclusive: 63.3%
5,O=C(NCC1COc2ccccc2O1)c1ccc(F)c(S(=O)(=O)N2CCOCC2)c1 (stereo unspecified),inconclusive: 39.9%
6,CN(C)S(=O)(=O)c1ccc(C(=O)Nc2ccc3ncccc3c2)cc1,inconclusive: 55.6%
7,CN(C)S(=O)(=O)N1CCC(Oc2cccc(C(=O)N3CCSCC3)c2)CC1,inactive: 3.87%
8,O=C(COC(=O)Cc1ccc(Br)cc1)NCc1ccc2c(c1)OCO2,inconclusive: 35.8%
9,COc1cccc(OCCOc2c(OC)cccc2OC)c1,inconclusive: 46.4%
10,Cc1c(C)n(Cc2ccc(F)cc2)c2ccc(C(=O)NCCN3CCOCC3)cc12,inconclusive: 37.1%
11,CCn1cc(C(=O)NCc2cccc(F)c2)c(=O)c2cc(F)c(N3CCN(C(=O)c4ccco4)CC3)cc21,inactive: -0.751%
12,COc1ccc(OC)c(/C=C2\N=C(c3ccccc3)OC2=O)c1,inactive: 3.9%
13,CC(=O)c1ccc(NC(=O)C2CCN(S(=O)(=O)c3cccs3)CC2)cc1,inconclusive: 51.4%
14,CCOc1nc(NCc2ccco2)nc(Nc2ccc(OC)cc2)n1,inconclusive: 63.9%
15,CC(C)C(=O)N1CCN(c2ccc(NC(=O)c3ccco3)cc2Cl)CC1,inactive: -1.35%
16,COC(=O)c1ccccc1NC(=O)c1cccc(COc2ccccc2Cl)c1,inactive: 1.38%
17,S=C(NCc1ccccc1)N1CCN(c2cccc(Cl)c2)CC1,inconclusive: 41%
18,C(=N\Nc1nc2ccccc2s1)/c1ccc2c(c1)OCO2,inconclusive: 34.2%
19,Cc1ccc(NC(=O)C2Cc3ccccc3C(=O)O2)cc1 (stereo unspecified),inconclusive: 43.8%
20,CCC(C)c1ccc(NC(=S)NCCn2cc(Cl)cn2)cc1 (stereo unspecified),inconclusive: 30.5%
21,CC(NC(=O)/C=C/c1ccccc1)c1ccccc1 (stereo unspecified),inconclusive: 42.1%
22,N#Cc1cc(C(=O)c2cc(F)ccc2O)cn(Cc2ccccc2)c1=O,inactive: -1.68%
23,COc1ccc(NC(=O)C2=CC(c3ccc(C)cc3)=NS(=O)(=O)N2C)cc1,inactive: 10.2%

# In the list so far, these have bromine:
row,SMILES,activation
11,CS(=O)(=O)N1CCCC(C(=O)Nc2ccc(Br)cc2F)C1 (stereo unspecified),inactive: 5.35%
10,CC/C(=N\NC(=O)C1CCCC1)c1ccc(Br)cc1,inconclusive: 38.6%
14,Cc1cc(SCC(=O)N/N=C/c2ccc(O)c(O)c2)c(C)cc1Br,inconclusive: 56.8%
17,Cn1nccc1NC(=O)Nc1cccc(Br)c1,inconclusive: 56.4%
8,O=C(COC(=O)Cc1ccc(Br)cc1)NCc1ccc2c(c1)OCO2,inconclusive: 35.8%

# Continued:

row,SMILES,activation
1,CCOc1ccc(Nc2cc(C)nc(N3CCOCC3)n2)cc1,inactive: 27.1%
2,CC(NC(=O)COC(=O)Cc1ccsc1)C1CC2CCC1C2 (stereo unspecified),inconclusive: 37%
3,CC(Oc1ccc2c3c(c(=O)oc2c1)CCCC3)C(=O)NCc1cccnc1 (stereo unspecified),inconclusive: 40.5%
4,COc1ccccc1N1CCN(C(=O)Nc2cccc(C)c2)CC1,inconclusive: 37.7%
5,CCc1ccc(/C=N/NC(=O)c2cc(-c3ccccc3OC)nc3ccccc23)s1,inactive: 0.674%
6,Cc1ccc(CN2CCc3c(OCc4ccc(F)cc4)cccc3C2=O)cc1,inconclusive: 56%
7,CSc1ncc(C(=O)Nc2cccc(Cl)c2C)c(C)n1,inconclusive: 32%
8,C(#CCN1CCC(Cc2ccccc2)CC1)COCCOCc1ccccc1,inactive: 7.14%
9,Cc1nn(-c2ccc(NC(=O)c3ccncc3)cc2)c(C)c1Cl,inconclusive: 31.5%
10,C=CCn1cccc(C(=O)Nc2ccc(Cl)cc2)c1=O,inconclusive: 68.7%
11,COc1ccc(N2C(=O)N3[C@H](c4ccc(Br)cc4)[C@@H]4C(=O)N(C(C)(C)C)C(=O)[C@@H]4[C@]3(Cc3ccccc3)C2=O)cc1,inactive: 3.53%
12,CCC1Sc2ccc(S(=O)(=O)N3CCN(c4ccccc4)CC3)cc2NC1=O (stereo unspecified),inactive: 5.04%
13,COc1cc(NC(=O)c2cccs2)c(C(=O)OCC(=O)NC(C)c2ccccc2)cc1OC (stereo unspecified),inconclusive: 36.5%
14,CCOC(=O)N1CCc2c(sc(NC(=O)CN3CCN(C)CC3)c2C(=O)Nc2ccccc2)C1,inconclusive: 35.3%
15,COc1ccccc1-c1nc(C(=O)NCC2CCCO2)cc2c1[nH]c1ccccc12 (stereo unspecified),inconclusive: 57.6%
16,Cc1ccc(S(=O)(=O)CC(CN2CCOCC2)N2CCOCC2)cc1 (stereo unspecified),inactive: -0.584%
17,CC1(C)Cc2c(sc3nnn(Cc4ccc(Cl)cc4)c(=O)c23)CO1,inconclusive: 43.6%
18,CC1C(=O)C(C)C(c2ccc([N+](=O)[O-])cc2)NC1c1ccc([N+](=O)[O-])cc1 (stereo unspecified),inactive: -1.9%
19,O=C(Nc1ccc(F)cc1)C1CCC(N2C(=O)c3ccccc3C2=O)CC1 (stereo unspecified),inconclusive: 68.3%
20,N#C/C(=C\c1ccc(-c2ccccc2[N+](=O)[O-])o1)C(=O)N1CCOCC1,inconclusive: 62.2%
21,O=C(NNC(=S)Nc1ccccc1)c1cccc(Br)c1,inactive: 7.09%
22,O=C(NCc1ccco1)Nc1ccc([N+](=O)[O-])cc1,inconclusive: 42%

# As entered above.
# activation with CN(C)S(=O)(=O)N1CCC(Oc2cccc(C(=O)N3CCSCC3)c2)CC1 reads inactive: 3.87%
# activation with CC(C)C(=O)N1CCN(c2ccc(NC(=O)c3ccco3)cc2Cl)CC1 reads inactive: -1.35%
